PubChem BioAssay AID1259254 | NCATS, 2017

Purpose: 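Genome-wide screen for genes that prevent DNA re-replication in cancer cells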 (primary screen)
Cells: human HCT116 colorectal cancer cells
Knock-down reagent: single siRNA against human genes
Time to read-out: 3 days
Measured: 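Imaged Hoechst DNA stain sorts each cell into a cycle phase by DNA amount; per plate, G2 fraction set to 0% for non-targeting and 100% for GMNN siRNA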
Direction: G2 robust z-score and G2 cells, % of GMNN control: higher = more G2 cells, more excess DNA replication
Active means: 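An siRNA counts as active if its G2 robust z-score lies at least 5 MADs above the screen median; here such calls match roughly 38% of GMNN control or more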
The whole screen tested about 59,000 reagents; shown is a part drawn at random. Over the whole deposit, about 1,550 (2.6%) are marked active. 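G2 share is only a proxy for re-replication; each gene was hit by three separate siRNAs, and active genes were retested.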 A number with no mark means an inactive call. The numbers tell different reagents against one gene apart. Not all columns of the deposit are shown. Not stated in the record: the amount of reagent.

Target gene | reagent no. | G2 robust z-score | G2 cells, % of GMNN control
PNOC | 1 | -0.354 | 0.476
PNOC | 2 | -0.369 | 0.369
PNOC | 3 | 0.332 | 5.3
SMAD9 | 1 | -0.0672 | 2.49
SMAD9 | 2 | 1.78 | 15.5
SMAD9 | 3 | 1.88 | 16.2
MALT1 | 1 | -1.63 | -8.51
MALT1 | 2 | 2.73 | 22.2
MALT1 | 3 | -0.0254 | 2.79
FIBCD1 | 1 | -0.61 | -1.32
FIBCD1 | 2 | 0.376 | 5.62
FIBCD1 | 3 | 0.717 | 8.01
ZNF668 | 1 | 6.05 (active) | 45.5
ZNF668 | 2 | -0.904 | -3.4
ZNF668 | 3 | 0.149 | 4.01
SATB1 | 1 | 1.07 | 10.5
SATB1 | 2 | -0.169 | 1.78
SATB1 | 3 | -0.33 | 0.642
CISD2 | 1 | 0.507 | 6.53
CISD2 | 2 | 2.96 | 23.8
CISD2 | 3 | -0.102 | 2.25
CST2 | 1 | 2.25 | 18.8
CST2 | 2 | -0.771 | -2.46
CST2 | 3 | -0.91 | -3.43
OR4D1 | 1 | 0.926 | 9.48
OR4D1 | 2 | -0.449 | -0.189
OR4D1 | 3 | -0.745 | -2.27
DEFB128 | 1 | 1.26 | 11.8
DEFB128 | 2 | -0.734 | -2.2
DEFB128 | 3 | -0.34 | 0.573
RPS2P45 | 1 | -0.0566 | 2.57
RPS2P45 | 2 | -0.344 | 0.544
RPS2P45 | 3 | -0.303 | 0.835
LOC100289470 | 1 | -0.886 | -3.27
LOC100289470 | 2 | 2.65 | 21.6
LOC100289470 | 3 | 1.31 | 12.2
SLC24A5 | 1 | 4.42 | 34.1
SLC24A5 | 2 | -0.214 | 1.46
SLC24A5 | 3 | -0.0808 | 2.4
CCDC25 | 1 | -0.358 | 0.448
CCDC25 | 2 | 0.435 | 6.03
CCDC25 | 3 | 1.95 | 16.7
MARVELD2 | 1 | 0.705 | 7.93
MARVELD2 | 2 | 0.492 | 6.43
MARVELD2 | 3 | -0.4 | 0.153
RPL15P17 | 1 | 6.96 (active) | 52
RPL15P17 | 2 | 1.27 | 11.9
RPL15P17 | 3 | 1.07 | 10.5
PDLIM5 | 1 | 1.37 | 12.6
PDLIM5 | 2 | -0.419 | 0.0191
PDLIM5 | 3 | 0.169 | 4.16
GOLGA3 | 1 | 0.0808 | 3.54
GOLGA3 | 2 | 0.00753 | 3.02
GOLGA3 | 3 | 1.92 | 16.5
TXK | 1 | -1.25 | -5.81
TXK | 2 | 0.471 | 6.28
TXK | 3 | -0.108 | 2.21
ZNF285CP | 1 | 0.237 | 4.64
ZNF285CP | 2 | -0.552 | -0.917
ZNF285CP | 3 | -0.688 | -1.88
ZNF285CP | 4 | 4.09 | 31.7
ZNF285CP | 5 | -0.0349 | 2.72
ZNF285CP | 6 | -0.473 | -0.364
STX1A | 1 | 0.899 | 9.3
STX1A | 2 | -0.759 | -2.38
STX1A | 3 | 4.03 | 31.3
PGLYRP1 | 1 | -1.23 | -5.68
PGLYRP1 | 2 | -0.225 | 1.38
PGLYRP1 | 3 | -0.912 | -3.45

Limited to “G2 robust z-score”, for 6 of the entries above:
ZNF668 #3 = 0.149
SATB1 #1 = 1.07
SATB1 #2 = -0.169
SATB1 #3 = -0.33
CISD2 #1 = 0.507
CISD2 #2 = 2.96
